The record followed here is PubChem BioAssay AID1918948 (Molecular Pharmacology Branch, DTP, NCI, 2023).

Molecules are shown by their SMILES. Several values for one entry are separate records, joined by “and”; a condition that tells them apart may be missing. Equal entries are not always repeated. Further values from the same series stand in other lists.

The viability, T/C is the ratio of treated to control.

This experiment deals with K-562 leukemia growth, % test/control. Kind of experiment: Anticancer human tumor K-562 cell line growth inhibition.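 Note: spheroids exposed to compounds for 7 days; 100% = DMSO vehicle wells and lower values mean fewer viable cells.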 To be noted: hits give low values, spheroids with HUVEC and MSC. An excerpt: Multicellular complex tumor spheroid response to LSD1 Inhibitor Iadademstat in combination with a variety of drugs and investigational agents in selected tumor cell lines
The current study was undertaken to assess response to LSD1 inhibitors in combination with standard-of-care drugs and investigational agents in solid tumor complex spheroid models as well as in the K-562 leukemia. Complex spheroids include a stromal component modeled by human endothelial cells (HUVEC) and fibroblasts modeled by human mesenchymal stem cells (MSCs). The concentration ranges selected for each drug and investigational agent were based upon clinically achievable concentrations if the clinical Cmax of the agent was known.
Compounds. The drugs and investigational agents used in this study are listed on Table 1. All of the agents used, including staurosporine (NSC755774) and gemcitabine (NSC613327), were obtained from the Developmental Therapeutics Program, NCI. FDA-approved anticancer drugs are available from the NCI at http://dtp.nci.nih.gov/branches/dscb/oncology_drugset_explanation.html. Drugs and investigational agents were >95% pure by proton nuclear magnetic resonance (NMR) and liquid chromatography/mass spectrometry (LC/MS). Stock solutions were prepared at 400x in DMSO, stored at -70 degrees C, and diluted in fresh medium prior to their use. The final concentration of DMSO in cell culture wells never exceeded 0.25% (v/v). The FDA-approved anticancer drug set is available from the Developmental Therapeutics Program at https://dtp.cancer.gov/organization/dscb/obtaining/available_plates.htm. All drugs and investigational agents were tested over a range starting from a high concentration at or near the clinical Cmax and decreasing in half-log increments. If the clinical Cmax for an agent had not been determined, the highest concentration tested was 10 microM.
Cell Lines. […]

In the case of `NC1CCC(NC2CC2c2ccccc2)CC1` (stereo not drawn), the viability, T/C (compound 0.316 µM) is 102% [middle of 19 runs]; the viability, T/C (compound 10 µM) is 96.7% and 101%. On to `NC1CC1c1ccc(-c2cccc(O)c2)cc1` (stereo not drawn), for which the viability, T/C (compound 0.1 µM) was 108% [middle of 22 runs].
